Results deposited as PubChem BioAssay AID1224830 (NIAID, 2016).

Assay: 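Host factors that control LPS-induced TNF expression in human macrophages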 (primary screen)
System: human THP-1 monocytic leukaemia cells, TNF dual-luciferase reporter clone, PMA-differentiated to macrophage-like cells
Reagents: siRNA pool against human genes, 50 nM
Timing: LPS for 4 h, given about 3 days after siRNA transfection
Conditions: bacterial LPS (TLR4 ligand), 10 ng/ml
Measurement: 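TNF firefly reporter luminescence divided by renilla, normalised to the plate median, then turned into a robust z-score for each replicate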
Reading the numbers: TNF reporter robust z-score: higher = stronger TNF reporter response to LPS
Rule for the call: 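a well is active when its z-score exceeds 2.8 or falls below -1.5; control wells carry no call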
This is an unselected part of about 18,000 reagents. Over the whole deposit, about 2,900 (16%) are marked active. 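Calls are made per well; low scores hint the gene aids the LPS response, high scores that it dampens it.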 A number with no mark means an inactive call. Repeated entries: four replicate wells of each siRNA pool.

| gene | TNF reporter robust z-score |
| --- | --- |
| PIP4K2A (phosphatidylinositol-5-phosphate 4-kinase type 2 alpha) | 0.38 |
| PIP4K2A (phosphatidylinositol-5-phosphate 4-kinase type 2 alpha) | 0.54 |
| PIP4K2A (phosphatidylinositol-5-phosphate 4-kinase type 2 alpha) | 0.46 |
| PIP4K2A (phosphatidylinositol-5-phosphate 4-kinase type 2 alpha) | 0.07 |
| ADRM1 (ADRM1 26S proteasome ubiquitin receptor) | -1.3 |
| ADRM1 (ADRM1 26S proteasome ubiquitin receptor) | 0.49 |
| ADRM1 (ADRM1 26S proteasome ubiquitin receptor) | 0.29 |
| ADRM1 (ADRM1 26S proteasome ubiquitin receptor) | -0.63 |
| SCAMP1 | 3.1 (active) |
| SCAMP1 | 1.19 |
| SCAMP1 | 2.87 (active) |
| SCAMP1 | 3.7 (active) |
| VCAN (versican) | -0.37 |
| VCAN (versican) | 0.62 |
| VCAN (versican) | -0.4 |
| VCAN (versican) | -0.21 |
| WDR5B (WD repeat domain 5B) | -1.81 (active) |
| WDR5B (WD repeat domain 5B) | -1.17 |
| WDR5B (WD repeat domain 5B) | -1.45 |
| WDR5B (WD repeat domain 5B) | -1.47 |
| ACTRT3 (actin related protein T3) | -0.63 |
| ACTRT3 (actin related protein T3) | 0 |
| ACTRT3 (actin related protein T3) | 0.24 |
| ACTRT3 (actin related protein T3) | -0.49 |
| NPRL3 (NPR3 like, GATOR1 complex subunit) | -0.37 |
| NPRL3 (NPR3 like, GATOR1 complex subunit) | 0.38 |
| NPRL3 (NPR3 like, GATOR1 complex subunit) | -0.61 |
| NPRL3 (NPR3 like, GATOR1 complex subunit) | 1.16 |
| ELP2 (elongator acetyltransferase complex subunit 2) | 1.71 |
| ELP2 (elongator acetyltransferase complex subunit 2) | 1.37 |
| ELP2 (elongator acetyltransferase complex subunit 2) | 1 |
| ELP2 (elongator acetyltransferase complex subunit 2) | 0.73 |
| CAMKK1 (calcium/calmodulin dependent protein kinase kinase 1) | -0.92 |
| CAMKK1 (calcium/calmodulin dependent protein kinase kinase 1) | -1.04 |
| CAMKK1 (calcium/calmodulin dependent protein kinase kinase 1) | -0.82 |
| CAMKK1 (calcium/calmodulin dependent protein kinase kinase 1) | -0.69 |
| HES3 (hes family bHLH transcription factor 3) | 1.94 |
| HES3 (hes family bHLH transcription factor 3) | 0.8 |
| HES3 (hes family bHLH transcription factor 3) | 1.36 |
| HES3 (hes family bHLH transcription factor 3) | 0.64 |
| EYA1 (EYA transcriptional coactivator and phosphatase 1) | -0.13 |
| EYA1 (EYA transcriptional coactivator and phosphatase 1) | -0.74 |
| EYA1 (EYA transcriptional coactivator and phosphatase 1) | -0.32 |
| EYA1 (EYA transcriptional coactivator and phosphatase 1) | -0.27 |
| ZNF566 (zinc finger protein 566) | 0.95 |
| ZNF566 (zinc finger protein 566) | 0.26 |
| ZNF566 (zinc finger protein 566) | -0.04 |
| ZNF566 (zinc finger protein 566) | 0.32 |
| MGAT2 | -1.41 |
| MGAT2 | -1.88 (active) |
| MGAT2 | -1.6 (active) |
| MGAT2 | -1.29 |
| AREL1 (apoptosis resistant E3 ubiquitin protein ligase 1) | 0.02 |
| AREL1 (apoptosis resistant E3 ubiquitin protein ligase 1) | 0.43 |
| AREL1 (apoptosis resistant E3 ubiquitin protein ligase 1) | 1.01 |
| AREL1 (apoptosis resistant E3 ubiquitin protein ligase 1) | 1 |
| JMJD7-PLA2G4B (JMJD7-PLA2G4B readthrough) | -1.29 |
| JMJD7-PLA2G4B (JMJD7-PLA2G4B readthrough) | -0.85 |
| JMJD7-PLA2G4B (JMJD7-PLA2G4B readthrough) | -1.47 |
| JMJD7-PLA2G4B (JMJD7-PLA2G4B readthrough) | -0.45 |
| SLC43A2 | -0.49 |
| SLC43A2 | 0.02 |
| SLC43A2 | -0.72 |
| SLC43A2 | -0.27 |
| LRRIQ4 (leucine rich repeats and IQ motif containing 4) | -0.5 |
| LRRIQ4 (leucine rich repeats and IQ motif containing 4) | -0.99 |
| LRRIQ4 (leucine rich repeats and IQ motif containing 4) | -1.02 |
| LRRIQ4 (leucine rich repeats and IQ motif containing 4) | -1.06 |
| NME3 (NME/NM23 nucleoside diphosphate kinase 3) | -0.66 |
| NME3 (NME/NM23 nucleoside diphosphate kinase 3) | 0.86 |
| NME3 (NME/NM23 nucleoside diphosphate kinase 3) | -0.23 |
| NME3 (NME/NM23 nucleoside diphosphate kinase 3) | -0.06 |
| MC3R (melanocortin 3 receptor) | -0.17 |
| MC3R (melanocortin 3 receptor) | -0.78 |
| MC3R (melanocortin 3 receptor) | -0.49 |
| MC3R (melanocortin 3 receptor) | 0.6 |
| AVPI1 (arginine vasopressin induced 1) | 1.92 |
| AVPI1 (arginine vasopressin induced 1) | 1.04 |
| AVPI1 (arginine vasopressin induced 1) | 0.24 |
| AVPI1 (arginine vasopressin induced 1) | 0.71 |
| OLFM1 (olfactomedin 1) | -0.86 |
| OLFM1 (olfactomedin 1) | -1.18 |
| OLFM1 (olfactomedin 1) | -1.06 |
| OLFM1 (olfactomedin 1) | 0.19 |
| LBH (LBH regulator of Wnt signaling pathway) | 1.59 |
| LBH (LBH regulator of Wnt signaling pathway) | -0.05 |
| LBH (LBH regulator of Wnt signaling pathway) | 0.42 |
| LBH (LBH regulator of Wnt signaling pathway) | 0.72 |
| ZNF518A (zinc finger protein 518A) | -0.32 |
| ZNF518A (zinc finger protein 518A) | 0.03 |
| ZNF518A (zinc finger protein 518A) | -0.39 |
| ZNF518A (zinc finger protein 518A) | -0.82 |
| ZNF394 (zinc finger protein 394) | -1.17 |
| ZNF394 (zinc finger protein 394) | -1.2 |
| ZNF394 (zinc finger protein 394) | -0.54 |
| ZNF394 (zinc finger protein 394) | -0.09 |
| OR14J1 (olfactory receptor family 14 subfamily J member 1) | -1.27 |
| OR14J1 (olfactory receptor family 14 subfamily J member 1) | -1.05 |
| OR14J1 (olfactory receptor family 14 subfamily J member 1) | -1.23 |
| OR14J1 (olfactory receptor family 14 subfamily J member 1) | -1.34 |
| EIF2AK1 (eukaryotic translation initiation factor 2 alpha kinase 1) | -1.08 |
| EIF2AK1 (eukaryotic translation initiation factor 2 alpha kinase 1) | 0.69 |
| EIF2AK1 (eukaryotic translation initiation factor 2 alpha kinase 1) | 0.03 |
| EIF2AK1 (eukaryotic translation initiation factor 2 alpha kinase 1) | 0.76 |
| OR2C3 (olfactory receptor family 2 subfamily C member 3) | -0.35 |
| OR2C3 (olfactory receptor family 2 subfamily C member 3) | 0.64 |
| OR2C3 (olfactory receptor family 2 subfamily C member 3) | 0.48 |
| OR2C3 (olfactory receptor family 2 subfamily C member 3) | 0.38 |
| RPS29 (ribosomal protein S29) | -0.89 |
| RPS29 (ribosomal protein S29) | -0.61 |
| RPS29 (ribosomal protein S29) | -0.85 |
| RPS29 (ribosomal protein S29) | -0.35 |

Not a retest: an excerpt of the list.
| gene | TNF reporter robust z-score |
| --- | --- |
| NPRL3 (NPR3 like, GATOR1 complex subunit) | -0.37 |
| NPRL3 (NPR3 like, GATOR1 complex subunit) | 0.38 |
| NPRL3 (NPR3 like, GATOR1 complex subunit) | -0.61 |
| NPRL3 (NPR3 like, GATOR1 complex subunit) | 1.16 |
| ELP2 (elongator acetyltransferase complex subunit 2) | 1.71 |
| ELP2 (elongator acetyltransferase complex subunit 2) | 1.37 |
| ELP2 (elongator acetyltransferase complex subunit 2) | 1 |
| ELP2 (elongator acetyltransferase complex subunit 2) | 0.73 |
| CAMKK1 (calcium/calmodulin dependent protein kinase kinase 1) | -0.92 |
| CAMKK1 (calcium/calmodulin dependent protein kinase kinase 1) | -1.04 |
| CAMKK1 (calcium/calmodulin dependent protein kinase kinase 1) | -0.82 |
| CAMKK1 (calcium/calmodulin dependent protein kinase kinase 1) | -0.69 |
| HES3 (hes family bHLH transcription factor 3) | 1.94 |
| HES3 (hes family bHLH transcription factor 3) | 0.8 |
| HES3 (hes family bHLH transcription factor 3) | 1.36 |
| HES3 (hes family bHLH transcription factor 3) | 0.64 |
| EYA1 (EYA transcriptional coactivator and phosphatase 1) | -0.13 |
